From patent US20080242680A1, “AGENT FOR THE PROPHYLAXIS OR TREATMENT OF NEURODEGENERATIVE DISEASE” (RIKEN, priority 2007, published 2008)
At least one structure is not confirmed: it was looked up by name or label, or the drawing left a doubt.

Key:
[1] = system: tNhtt-polyQ aggregates in mouse embryonic fibroblast (MEF); assay: tNhtt-polyQ aggregation in Atg5-suppressed MEF; type: cell-based; conditions: doxycycline 5 days, benzamil 18 hr
[2] = system: tNhtt-polyQ-EGFP aggregates in Neuro2a cells; assay: tNhtt-polyQ-EGFP aggregates in ponasterone A-inducible Neuro2a cells, ArrayScan quantification; type: cell-based, mouse
Procedure: ; polyQ, 60 or 150 polyglutamine repeats) is induced by 1 μM ponasterone A and which that can differentiate into neuronal phenotype cells in response to treatment with 5 mM N6,2′-O-dibutyryladenosine-3′,5′-cyclic monophosphate sodium salt (dbcAMP) [Wang, G. H. et al. Neuroreport 10, 2435-8 (1999)]. […] To eliminate the possibility of Ami and Ben decreasing aggregates by interfering with the ponasterone A-inducible system, native Neuro2a cells were transfected with an expression plasmid having 62 or 150 polyglutamine repeats in the presence or absence of a nuclear localization signal peptide (FIG. 2d).

R6/2 mice [3] = assay: Survival of R6/2 mice (Kaplan-Meier, log-rank); type: in vivo, mouse; conditions: tg-Ben5, 5 mg/kg oral
Procedure: HD mouse model R6/2 containing 145 CAG repeats was originally purchased from The Jackson Laboratory. Mice carrying 120-130 CAG repeats (confirmed by PCR) were selected for an in vivo test with benzamil. Benzamil dissolved in water was orally administered in an amount of 5 mg/kg (Ben-5) or 1 mg/kg (Ben-1) once a day six times a week (no administration one day a week) starting from 4 week-old until death. The body weight was measured once a week. For a clasping test, mice were suspended by the tail for 30 sec, clasping patterns were graded into the following levels according to the following criteria: 0: no clasping, 1: forelimb clasping only, 2: both forelimb and hindlimb clasping once or twice, 3: 3 times or more clasping for more than 5 sec of both forelimb and hindlimb. […] For the survival distribution, the number of days each mouse survived was recorded, and data collected for all treatments (mice survived for 13 weeks or longer; water, n=8; tg-Ben1, n=10; and tg-Ben5, n=9) were subjected to the Kaplan-Meier analysis followed by log-rank testing. […]
For comparing two samples, an unpaired student's t-test was used. […] For survival rate, a survival distribution curve was plotted with the Kaplan-Meier method, and the survival rate was then calculated with the log-rank testing (all the data were generated with the XLSTAT software). […]

R6/2 mice [4] = assay: Clasping test in R6/2 mice; type: in vivo, mouse
[5] = system: proteasome activity in polyQ-bearing Neuro2a cells; assay: ubi-dsRED reporter in tNhtt-polyQ-bearing cells; type: cell-based, mouse
[6] = system: SDS-resistant tNhtt-polyQ aggregates; assay: Filter trap assay of SDS-resistant aggregates in cell lysates; type: cell-based, mouse; conditions: Neuro2a lysates, 2% SDS
Procedure: A filter trap assay was performed with a Hybri-Dot manifold (BIO-RAD) and a cellulose acetate membrane filter having a pore size of […] (Advantec). Concisely stated, cells ready for analysis were lysed in the same lysis buffer as that used for the Western blot and sonicated briefly, and the protein concentration were quantified according to the above-mentioned BCA method. For a brain sample, brain tissues were initially homogenized 10 strokes at 1500 rpm in a 5 cm^3 glass tube with 1 ml homogenization buffer (50 mM Tris-HCl, pH 7.4, 150 mM NaCl, 1% Triton X-100, 1 mM PMSF, and a complete protease inhibitor cocktail). Then, brain lysate was sonicated briefly, and the concentration was measured. The same amount of proteins from respective experiment conditions were each diluted by 2% SDS in PBS to 100 μl, and applied onto the membrane. The wells were washed twice with 2% SDS/PBS and vacuum-suctioned for 20 min, thereby aggregate insoluble in SDS being completely and securely trapped. The membranes were then blocked with 5% skim milk and Western blotting was proceeded.

[7] = system: soluble tNhtt-150Q in Neuro2a cells; assay: Soluble tNhtt-150Q expression, Western blot and ArrayScan; type: cell-based, mouse
R6/2 mice [8] = assay: Rota-rod test in R6/2 mice; type: in vivo, mouse; conditions: transgenic mice, 1 mg/kg oral
[9] = system: soluble tNhtt-60Q in Neuro2a cells; assay: Chase experiment, degradation of soluble tNhtt-polyQ; type: cell-based, mouse
Procedure: To determine whether soluble tNhtt-polyQ is degraded faster in the presence of benzamil, a chase experiment was performed, because inducible Neuro2a cells that express tNhtt-60Q were selected. Majority of the tNhtt-60Q remained soluble, and only few aggregates were observed one day after incubation. Concisely stated, Neuro2a cells were first differentiated, and induced to express hrtNhtt-60Q for 24 hours. Ponasterone A was removed thereafter (with dbcAMP maintaining the differentiation status), and the cells were incubated with water (control) or 50 μM benzamil (Day 0) for 4 days (Day 4). The medium was replaced with a fresh medium containing benzamil in the same concentration every 2 days, and cells were collected once a day until Day 4. Cells were then lysed, and expression of soluble tNhtt-60Q was analyzed by Western blot with an anti-huntingtin antibody (anti-em48).

[10] = system: ubiquitin proteasome system (UPS) in Neuro2a cells; assay: ubi-dsRED reporter of proteasome activity under MG-132 block; conditions: ubi-dsRED transfected Neuro2a, various concentrations
R6/2 mice [11] = assay: Body weight of R6/2 mice; type: in vivo, mouse; conditions: tg mice, 1 and 5 mg/kg oral, after 10 week-old
tNhtt-polyQ expression = assay: Semi-quantitative PCR of tNhtt-polyQ transgene expression; type: cell-based, mouse; conditions: up to 50 μM
Procedure: Total RNA was extracted from the Neuro2a cells using an RNeasy® Mini Kit (QIAGEN) according to the instruction manual. To ensure complete removal of contaminating DNA, genomic DNA was digested with RNase-free DNase I (QIAGEN). The amount of total RNA was quantified based on the absorbance at 260 nm (GeneQuant, Amersham). Using SUPERSCRIPT™III RNase H^− Reverse Transcriptase (Invitrogen), 1 μg of RNA from each sample was transcribed into a cDNA. PCR was performed in a thermal cycler (BIO-RAD). For each primer, a cycle number that gives mid-log phase amplification was first determined, and the gene of interest was then amplified. The PCR product was separated by electrophoresis on 2.5% agarose gel. DNA images were captured by a UV transilluminator (TOYOBO CO., LTD.), and the band intensity was quantified by the ImageJ software (NCBI). Glyceraldehyde-3-phosphate-dehydrogenase (Gapdh) gene was amplified in each PCR experiment to serve as an internal loading control for a change in gene expression level. The PCR primers used in this research are as follows (synthesized by Sigma or Operon; all from 5′ to 3′; F-forward; R-reverse): NHE1-F […] (SEQ ID NO: 1), -R […] (SEQ ID NO: 2); NHE5-F […] (SEQ ID NO: 3), -R […] (SEQ ID NO: 4); NCX1-F […] (SEQ ID NO: 5), -R […] (SEQ ID NO: 6); NCX2-F […] (SEQ ID NO: 7), -R […] (SEQ ID NO: 8); NCX3-F […] (SEQ ID NO: 9), -R […] (SEQ ID NO: 10); BNaC1-F […] […]

NC(=NCc1ccccc1)NC(=O)c1nc(Cl)c(N)nc1N [benzamil]
tNhtt-polyQ aggregation [1]: decreased tNhtt-polyQ aggregation in the absence of Atg5 | tNhtt-150Qnls-EGFP nuclear aggregates [2]: significantly decreased tNhtt-150Qnls-EGFP nuclear aggregates | tNhtt-60Q-EGFP and tNhtt-150Q-EGFP cytoplasmic aggregates ([2]; induced 1 day, up to 50 μM, dose-dependent): decreased tNhtt-60Q-EGFP and tNhtt-150Q-EGFP cytoplasmic aggregates | survival rate (R6/2 mice [3]): did not show an overall increase in survival rate | limb clasping posture (R6/2 mice [4]; 8-week-old tg mice, 1 or 5 mg/kg oral, 6 times a week): remarkably ameliorated | limb clasping posture (R6/2 mice [4]; 12 week-old tg mice, 1 mg/kg oral): the advantageous effect was continuously observed even at 12 week-old | average ubi-dsRED intensity in the polyQ-bearing cells ([5]; ArrayScan): significantly decreased | number of ubi-dsRED cells in the polyQ-bearing population ([5]; ArrayScan): significantly decreased | accumulation of ubi-dsRED cells ([5]; Western blotting with anti-RFP antibody, lactacystin 10 μM): accumulation of ubi-dsRED cells was mostly absent | co-localization of polyQ with ubi-dsRED ([5]; large population of polyQ-bearing cells): co-localization with ubi-dsRED was no longer observed | aggregate trapped on cellulose acetate membrane [6]: reduced the amount of aggregate trapped on a cellulose acetate membrane | soluble huntingtin ([7]; Neuro2a, 50 μM, Western blot): significant decrease of soluble huntingtin | percentage of GFP-positive cells and GFP intensity ([7]; inducible and transient systems, ArrayScan): significant decrease in the percentage of GFP-positive cells and in the GFP intensity | time on the rota-rod (R6/2 mice [8]): greatly prolonged the period of time the transgenic mice stayed on the rota-rod | absolute amount of soluble tNhtt-polyQ ([9]; tNhtt-60Q, Day 3 and Day 4, 50 μM): significant decrease in the absolute amount of soluble tNhtt-polyQ | degradation rate of tNhtt-16Q ([9]; versus water): no significant difference in degradation rate | proteasome inhibition caused by MG-132 [10]: alleviate proteasome inhibition caused by MG-132 in a dose-dependent manner | body weight (R6/2 mice [11]): significant increase in body weight | expression level of tNhtt-16/60/150Q (tNhtt-polyQ expression): did not influence the expression level of tNhtt-16/60/150Q
